Binding data for two molecules are collected here from patent US20080292639A1.

Amino acid sequences for entries named in this document (tags omitted). Residues count along the entry.
UniProt P05067, residues 672-713: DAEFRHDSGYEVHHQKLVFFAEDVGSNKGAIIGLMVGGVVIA

Test [1] deals with amyloid plaques in unfixed brain sections of a human AD patient (human) (UniProt P05067). The test is described as follows: immunohistochemistry on unfixed brain sections.
The target in test [2] is native amyloid plaques in unfixed brain sections of Tg2576 APP transgenic mice (human) (UniProt P05067). The test is described as follows: immunohistochemistry on unfixed brain sections.
Test [3] addresses amyloid plaques in unfixed brain sections of a human AD patient (human) (UniProt P05067). The test is described as follows: immunohistochemistry on unfixed human AD brain sections.
Test [4] deals with native amyloid plaques in unfixed brain sections of Tg2576 APP transgenic mice (human) (UniProt P05067). The test is described as follows: immunohistochemistry on unfixed Tg2576 mouse brain sections.
Test [5] has the same target. The test is described as follows: immunohistochemistry on unfixed Tg2576 mouse brain sections, relative score.

No constants are given. Whether binding was seen depends on the method and setting. Some entries that bind do so weakly or less than the wild type.

B1: murine monoclonal anti-amyloid antibody 2.1 (antibody, mouse IgG1, kappa, V domains shown)
VH: QVTLKESGPGILKPSQTLSLTCSFSGFSLRTSGMGVGWIRQPSGKGLEWLAHIWWDDDKSYNPSLKSQLTISKDTSRNQVFLKITSVDTADTATYYCARRNYYYDDYFAYWGQGTTLTVSS
VL: DVLMTQTPLSLPVSLGDQASISCRSSQSIVHSNGNTYLEWYLQKPGQSPKLLIYKVSNRFSGVPDRFSGSGSGTDFTLKISRVEAEDLGVYYCFQGSHVPLTFGAGTKLELKR
For B1, the binding entry in test [1], in test [2], in test [3] and in test [4] was “binds” in each case.

B2: 2.1 B (antibody, human IgG1, kappa, V domains shown)
VH: QVTLRESGPALVKPTQTLTLTCTFSGFSLRTSGMGVGWIRQPPGKALEWLAHIWWDDDKSYNPSLKSQLTISKDTSKNQVVLTMTNMDPVDTATYYCARRNYYYDDYFAYWGQGTLVTVSS
VL: DVVMTQSPLSLPVTLGQPASISCRSSQSIVHSNGNTYLEWFVQRPGQSPRVLIYKVSNRFSGVPDRFSGSGSGTDFTLKISRVEAEDVGVYYCFQGSHVPLTFGGGTKLEIKR
Take B2: the binding result in test [5] is given as “binds”.
